{"source": "patent US12491217B2", "about": "“Compositions and methods for promoting healthy neural development in an unborn baby” (The Regents of the University of California, priority 2019, dated 2025)", "experiment": "Metabolomics of fetal brain at E14.5", "type": "in vivo, C57Bl/6J mice", "details": "metabolite level in E14.5 fetal brain; for fold of change ABX/SPF: ANOVA contrast ABX/SPF; for fold of change GF/ABX: ANOVA contrast GF/ABX; for fold of change GF/SPF: ANOVA contrast GF/SPF; for fold of change GF/Sp: ANOVA contrast GF/Sp; for fold of change Sp/ABX: ANOVA contrast Sp/ABX; for fold of change Sp/SPF: ANOVA contrast Sp/SPF"}
{"molecule": "Nc1nc2[nH]cnc2c(=O)[nH]1", "note": "[compound 3514]", "values": [{"measurement": "fold of change ABX/SPF", "result": 1.07}, {"measurement": "fold of change GF/ABX", "result": 0.76}, {"measurement": "fold of change GF/SPF", "result": 0.82}, {"measurement": "fold of change GF/Sp", "result": 1.11}, {"measurement": "fold of change Sp/ABX", "result": 0.69}, {"measurement": "fold of change Sp/SPF", "result": 0.73}]}
{"molecule": "Cn1cnc2nc(N)[nH]c(=O)c21", "note": "[compound 3516]", "values": [{"measurement": "fold of change ABX/SPF", "result": 0.69}, {"measurement": "fold of change GF/ABX", "result": 0.98}, {"measurement": "fold of change GF/SPF", "result": 0.68}, {"measurement": "fold of change GF/Sp", "result": 0.91}, {"measurement": "fold of change Sp/ABX", "result": 1.07}, {"measurement": "fold of change Sp/SPF", "result": 0.74}]}
{"molecule": "CN(C)c1nc2c(ncn2[C@@H]2O[C@H](CO)[C@@H](O)[C@H]2O)c(=O)[nH]1", "note": "[compound 3522]", "values": [{"measurement": "fold of change ABX/SPF", "result": 0.58}, {"measurement": "fold of change GF/ABX", "result": 1.17}, {"measurement": "fold of change GF/SPF", "result": 0.68}, {"measurement": "fold of change GF/Sp", "result": 0.89}, {"measurement": "fold of change Sp/ABX", "result": 1.32}, {"measurement": "fold of change Sp/SPF", "result": 0.76}]}
{"molecule": "Nc1nc2c(ncn2[C@H]2C[C@H](O)[C@@H](COP(=O)(O)O)O2)c(=O)[nH]1", "note": "[compound 3528]", "values": [{"measurement": "fold of change ABX/SPF", "result": 0.74}, {"measurement": "fold of change GF/ABX", "result": 0.87}, {"measurement": "fold of change GF/SPF", "result": 0.64}, {"measurement": "fold of change GF/Sp", "result": 0.76}, {"measurement": "fold of change Sp/ABX", "result": 1.15}, {"measurement": "fold of change Sp/SPF", "result": 0.84}]}
{"molecule": "Nc1nc2c(ncn2[C@H]2C[C@H](O)[C@@H](CO)O2)c(=O)[nH]1", "note": "[compound 3530]", "values": [{"measurement": "fold of change ABX/SPF", "result": 0.94}, {"measurement": "fold of change GF/ABX", "result": 0.94}, {"measurement": "fold of change GF/SPF", "result": 0.88}, {"measurement": "fold of change GF/Sp", "result": 0.96}, {"measurement": "fold of change Sp/ABX", "result": 0.98}, {"measurement": "fold of change Sp/SPF", "result": 0.91}]}
{"molecule": "NC(=O)N[C@@H](CC(=O)O)C(=O)O", "note": "[compound 3533]", "values": [{"measurement": "fold of change ABX/SPF", "result": 1.07}, {"measurement": "fold of change GF/ABX", "result": 1.48}, {"measurement": "fold of change GF/SPF", "result": 1.58}, {"measurement": "fold of change GF/Sp", "result": 1.42}, {"measurement": "fold of change Sp/ABX", "result": 1.04}, {"measurement": "fold of change Sp/SPF", "result": 1.11}]}
{"molecule": "O=C1CC(C(=O)O)NC(=O)N1", "note": "(stereo not drawn) [compound 3534]", "values": [{"measurement": "fold of change ABX/SPF", "result": 0.89}, {"measurement": "fold of change GF/ABX", "result": 2.10}, {"measurement": "fold of change GF/SPF", "result": 1.88}, {"measurement": "fold of change GF/Sp", "result": 1.94}, {"measurement": "fold of change Sp/ABX", "result": 1.08}, {"measurement": "fold of change Sp/SPF", "result": 0.97}]}
{"molecule": "O=C(O)c1cc(=O)[nH]c(=O)[nH]1", "note": "[compound 3535]", "values": [{"measurement": "fold of change ABX/SPF", "result": 0.81}, {"measurement": "fold of change GF/ABX", "result": 1.15}, {"measurement": "fold of change GF/SPF", "result": 0.94}, {"measurement": "fold of change GF/Sp", "result": 0.95}, {"measurement": "fold of change Sp/ABX", "result": 1.22}, {"measurement": "fold of change Sp/SPF", "result": 0.99}]}
{"molecule": "O=C(O)c1cc(=O)[nH]c(=O)n1[C@@H]1O[C@H](CO)[C@@H](O)[C@H]1O", "note": "[compound 3537]", "values": [{"measurement": "fold of change ABX/SPF", "result": 0.77}, {"measurement": "fold of change GF/ABX", "result": 1.05}, {"measurement": "fold of change GF/SPF", "result": 0.81}, {"measurement": "fold of change GF/Sp", "result": 1.00}, {"measurement": "fold of change Sp/ABX", "result": 1.05}, {"measurement": "fold of change Sp/SPF", "result": 0.81}]}
{"molecule": "O=c1ccn([C@@H]2O[C@H](COP(=O)(O)OP(=O)(O)O)[C@@H](O)[C@H]2O)c(=O)[nH]1", "note": "[compound 3541]", "values": [{"measurement": "fold of change ABX/SPF", "result": 0.81}, {"measurement": "fold of change GF/ABX", "result": 0.68}, {"measurement": "fold of change GF/SPF", "result": 0.55}, {"measurement": "fold of change GF/Sp", "result": 0.95}, {"measurement": "fold of change Sp/ABX", "result": 0.72}, {"measurement": "fold of change Sp/SPF", "result": 0.58}]}
{"molecule": "O=c1ccn([C@@H]2O[C@H](COP(=O)(O)O)[C@@H](O)[C@H]2O)c(=O)[nH]1", "note": "[compound 3542]", "values": [{"measurement": "fold of change ABX/SPF", "result": 0.99}, {"measurement": "fold of change GF/ABX", "result": 1.12}, {"measurement": "fold of change GF/SPF", "result": 1.11}, {"measurement": "fold of change GF/Sp", "result": 1.14}, {"measurement": "fold of change Sp/ABX", "result": 0.98}, {"measurement": "fold of change Sp/SPF", "result": 0.97}]}
{"molecule": "O=c1cc[nH]c(=O)[nH]1", "note": "[compound 3548]", "values": [{"measurement": "fold of change ABX/SPF", "result": 0.82}, {"measurement": "fold of change GF/ABX", "result": 0.74}, {"measurement": "fold of change GF/SPF", "result": 0.61}, {"measurement": "fold of change GF/Sp", "result": 0.90}, {"measurement": "fold of change Sp/ABX", "result": 0.82}, {"measurement": "fold of change Sp/SPF", "result": 0.68}]}
{"molecule": "O=c1[nH]cc([C@@H]2O[C@H](CO)[C@@H](O)[C@H]2O)c(=O)[nH]1", "note": "[compound 3549]", "values": [{"measurement": "fold of change ABX/SPF", "result": 0.80}, {"measurement": "fold of change GF/ABX", "result": 1.06}, {"measurement": "fold of change GF/SPF", "result": 0.85}, {"measurement": "fold of change GF/Sp", "result": 0.88}, {"measurement": "fold of change Sp/ABX", "result": 1.21}, {"measurement": "fold of change Sp/SPF", "result": 0.97}]}
